Measured values as given in WO2017153953A1.
These are yes or no findings as the source states them, for the method shown. Some results given as binding are weak or reduced against the parent protein; the word gives no strength.

T1: human MCAM protein (human) (UniProt P43121)
T1 sequence: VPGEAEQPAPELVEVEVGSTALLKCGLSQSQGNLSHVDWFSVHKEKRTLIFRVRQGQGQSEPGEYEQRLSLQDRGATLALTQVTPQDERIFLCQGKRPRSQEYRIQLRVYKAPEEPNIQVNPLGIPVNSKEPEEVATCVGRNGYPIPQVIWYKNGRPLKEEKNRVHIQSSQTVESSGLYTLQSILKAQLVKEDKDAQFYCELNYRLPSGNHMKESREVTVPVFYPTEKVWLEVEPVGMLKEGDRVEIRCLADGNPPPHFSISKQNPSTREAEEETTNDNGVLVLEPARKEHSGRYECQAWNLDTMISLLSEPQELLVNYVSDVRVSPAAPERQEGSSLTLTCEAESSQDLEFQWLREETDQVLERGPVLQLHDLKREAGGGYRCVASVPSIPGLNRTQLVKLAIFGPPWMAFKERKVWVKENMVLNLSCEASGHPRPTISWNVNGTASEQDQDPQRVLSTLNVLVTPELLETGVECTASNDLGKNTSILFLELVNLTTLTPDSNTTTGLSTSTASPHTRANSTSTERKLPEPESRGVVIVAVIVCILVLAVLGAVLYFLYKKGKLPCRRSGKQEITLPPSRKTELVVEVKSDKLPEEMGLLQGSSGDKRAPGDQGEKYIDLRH

T2: human MCAM expressed on transfected CHO cells (human) (UniProt P43121)
T2 sequence: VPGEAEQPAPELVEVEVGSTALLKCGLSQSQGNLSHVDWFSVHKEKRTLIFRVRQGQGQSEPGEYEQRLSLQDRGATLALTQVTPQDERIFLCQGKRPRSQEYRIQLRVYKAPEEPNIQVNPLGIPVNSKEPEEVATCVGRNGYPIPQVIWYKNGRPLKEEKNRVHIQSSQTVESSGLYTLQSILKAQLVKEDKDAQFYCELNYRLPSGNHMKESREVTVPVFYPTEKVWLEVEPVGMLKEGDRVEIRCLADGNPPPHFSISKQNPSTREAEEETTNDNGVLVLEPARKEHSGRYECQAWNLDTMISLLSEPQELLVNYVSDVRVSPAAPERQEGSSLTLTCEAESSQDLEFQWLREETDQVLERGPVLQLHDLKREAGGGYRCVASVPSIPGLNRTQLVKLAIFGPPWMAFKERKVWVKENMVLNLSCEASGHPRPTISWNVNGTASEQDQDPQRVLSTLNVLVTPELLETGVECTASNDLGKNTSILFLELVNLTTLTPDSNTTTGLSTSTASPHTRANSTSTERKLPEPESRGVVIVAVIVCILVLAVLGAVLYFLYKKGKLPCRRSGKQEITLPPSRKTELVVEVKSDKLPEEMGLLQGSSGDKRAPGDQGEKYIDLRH

T3: human MCAM domains 1 and 2 hFc (human) (UniProt P43121)
T3 sequence: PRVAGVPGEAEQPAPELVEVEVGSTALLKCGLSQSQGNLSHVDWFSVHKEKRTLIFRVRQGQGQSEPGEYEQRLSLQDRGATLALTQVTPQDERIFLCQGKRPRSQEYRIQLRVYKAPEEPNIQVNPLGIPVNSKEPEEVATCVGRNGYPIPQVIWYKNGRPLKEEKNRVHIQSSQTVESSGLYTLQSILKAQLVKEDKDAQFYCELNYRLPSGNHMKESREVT


Key:
[1] = biological target: T1, human MCAM protein (human); assay: summary of Examples 2 and 3
[2] = biological target: T1, human MCAM protein (human); assay: bio-layer interferometry, ForteBio Octet QK; numbers stood in Table 6, which is not in this copy
[3] = biological target: T2, human MCAM expressed on transfected CHO cells (human); assay: cells expressing human MCAM
[4] = biological target: T3, human MCAM domains 1 and 2 hFc (human); assay: ForteBio Octet; MCAMhFc domains on anti-human IgG Fc biosensor, antibody at 5 ug/ml

binding [1]	binding [2]	binding [3]	binding [4]	Binder
binds				mouse anti-human MCAM monoclonal antibody clone 1414.1.2 (antibody, V domains shown) VH: EIQLQQTGPELVKPGASVKISCKASGYSFTDYIMLWVKQSHGKSLEWIGNINPYSGSSGYNLKFKGKATLTVDKSSSTAYMQLNSLTSEDSAVYYCARGKDFAMDYWGQGTSVTVSS VL: DIVMSQSPSSLAVSAGEKVTMSCKSSQSLLNSSTRKNFLAWYQQKPGQSPKLLIYWASTRESGVPDRFTGSGSGTDFTLTISSVQAEDLAVYYCKQSYNRYTFGGGTKLEIK
binds	binds			mouse anti-human MCAM monoclonal antibody clone 1749.1.3 (antibody, V domains shown) VH: DVKLVESGGDLVKPGGSLKLSCAASGFTFSSYIMSWVRQTPEKRLEWVATISSGGSSTYYPDSVKGRFTISRDNAKNTLYLQMSSLKSEDTAMYYCTRDDDYDVKVFAYWGQGTLVTVSA VL: DIVMSQSPSSLAVSAGEKVTMNCKSSRSLLNSRIRKNYLAWYQQKPGQSPKLLIYWASTRESGVPDRFTGSGSGTDFTLTISSVQAEDLAVYYCKQSYNLLTFGAGTKLELK
binds				mouse anti-human MCAM monoclonal antibody clone 1174.1.3 (antibody, V domains shown) VH: QIQLVQSGPELKKPGETVKISCKASGYTFTNYGMNWVKQAPGKGLKWMGWINTYTGEPTYADDFKGRFALSLETSASTAYLQINNLKNEDMATYFCARYRYNKYERAMDYWGQGTSVTVSS VL: DIVLTQSPASLAVSLGQRATISCRASKSVSTSGYSYMYWYQQKPGQPPKLLIYLASNLESGVPARFSGSGSGTDFTLNIHPVEEEDAATYYCQHSRELPFTFGSGTKLEIK
binds		binds	binds	rat anti-human MCAM monoclonal antibody clone 2120.4.19 (antibody, V domains shown) VH: QVQLKESGPGLVQPSQTLSLTCTVSGFSLTSNGVSWVRQPPGKGLEWIAAISSGGTTYYNSAFKSRLSISRNTSKSQVLLKMNSLQTEDTAMYFCARRYGYGWYFDFWGPGTMVTVSS VL: DIRMTQSPSLLSASVGDRVTLNCKASQNIYNSLAWYQQKLGEGPKVLIFNANSLQTGIPSRFSGSGSGTDFTLTISSLQPEDFATYFCQQFYSGYTFGAGTKLELK
binds		binds	binds	rat anti-human MCAM monoclonal antibody clone 2107.4.10 (antibody, V domains shown) VH: QVQLKESGPGLVQSSQTLSLTCTVSGFSLTSNGVSWVRQPPGKGLEWIAAISSGGSTYYNSAFKSRLSISRNTSKSQVLLKMNSLQTEDTGMYFCARHRPFYFDYWGQGVMVTVSS VL: DIQVTQSPSLLSASVGDRVTLNCKGSQNIYKSLAWFRLKRGEAPKLLIYDANSLQTGIPSRFSGSGSGTDFTLTITSLQPEDVATYFCQQYYSGYTFGAGTKLELK
binds				mouse anti-human MCAM monoclonal antibody clone 1415.1.1 (antibody, V domains shown) VH: QVQLQQPGAELVQPGAPVKLSCKASGYIFTSYWMNWVKQRPGRGLEWIGRIDPSDSKIHYNQKFKDKATLTVDRSSSTAYIQLGSLTSEDSAVYYCAKEGGLRRGDYAMDYWGQGTSVTVSS VL: DIVMTQSPATLSVTPGDRVSLSCRASQSISDYLHWYQQKSHESPRLLIKYASQSISGIPSRFSGSGSGSDFTLSINSVEPEDVGVYYCQNGHNFPRTFGGGTKLEIK
